Results reported in publication PMC5249250.
Positions count from the first letter of the chain named. Names may count otherwise. These are yes or no findings as the source states them, for the method shown. For some assays here: In cells and extracts the contact can be indirect. Some results given as binding are weak or reduced against the parent protein; the word gives no strength. Tags and fused reporters may be left off the sequences shown. Each block holds one binder with its values, some of them ahead of it.

What was measured:
[1] = target: POB1 expressed in planta (HA-POB1 and GFP-POB1) (Arabidopsis thaliana) (UniProt Q9FPW6); experiment: co-IP; tagged proteins co-expressed by agroinfiltration in leaves; extract after 3 days incubated with epitope antibody agarose conjugates (anti-GFP or anti-HA) 3-4 hours at 4°C; blots with anti-HA and anti-GFP; MG132 treatment for POB1 with HA-PUB17 (Fig 7E)
[2] = target: T1, GFP-AtCUL3A (Arabidopsis thaliana) (UniProt Q9ZVH4); experiment: as above
T1 sequence: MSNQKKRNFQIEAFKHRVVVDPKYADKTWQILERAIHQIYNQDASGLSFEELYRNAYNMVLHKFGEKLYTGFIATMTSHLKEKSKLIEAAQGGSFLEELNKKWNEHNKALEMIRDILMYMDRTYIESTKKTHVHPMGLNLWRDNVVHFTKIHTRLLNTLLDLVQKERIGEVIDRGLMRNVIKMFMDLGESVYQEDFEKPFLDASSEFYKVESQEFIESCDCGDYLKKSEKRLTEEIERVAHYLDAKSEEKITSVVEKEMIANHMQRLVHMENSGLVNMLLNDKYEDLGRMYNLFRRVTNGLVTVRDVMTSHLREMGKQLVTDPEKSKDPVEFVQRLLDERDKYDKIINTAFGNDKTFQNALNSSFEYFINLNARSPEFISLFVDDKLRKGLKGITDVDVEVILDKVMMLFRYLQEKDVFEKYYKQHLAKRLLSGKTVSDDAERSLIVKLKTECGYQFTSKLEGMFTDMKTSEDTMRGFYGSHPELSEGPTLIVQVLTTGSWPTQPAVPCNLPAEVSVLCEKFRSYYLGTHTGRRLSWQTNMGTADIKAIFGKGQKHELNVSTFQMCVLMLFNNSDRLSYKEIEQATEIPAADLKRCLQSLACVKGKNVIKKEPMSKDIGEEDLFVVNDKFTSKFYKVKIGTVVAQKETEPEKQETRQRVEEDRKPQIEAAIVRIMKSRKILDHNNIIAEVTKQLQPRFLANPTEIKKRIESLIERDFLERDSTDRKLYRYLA

[3] = target: T2, POB1 (yeast two-hybrid fusions) (Arabidopsis thaliana) (UniProt Q9FPW6); experiment: two-hybrid; AD- and BD- fusions co-transformed into AH109 yeast cells; growth on selective media (Leu-, Trp-, His- and X-alpha-Gal), 30°C, 3 to 5 days
T2 sequence: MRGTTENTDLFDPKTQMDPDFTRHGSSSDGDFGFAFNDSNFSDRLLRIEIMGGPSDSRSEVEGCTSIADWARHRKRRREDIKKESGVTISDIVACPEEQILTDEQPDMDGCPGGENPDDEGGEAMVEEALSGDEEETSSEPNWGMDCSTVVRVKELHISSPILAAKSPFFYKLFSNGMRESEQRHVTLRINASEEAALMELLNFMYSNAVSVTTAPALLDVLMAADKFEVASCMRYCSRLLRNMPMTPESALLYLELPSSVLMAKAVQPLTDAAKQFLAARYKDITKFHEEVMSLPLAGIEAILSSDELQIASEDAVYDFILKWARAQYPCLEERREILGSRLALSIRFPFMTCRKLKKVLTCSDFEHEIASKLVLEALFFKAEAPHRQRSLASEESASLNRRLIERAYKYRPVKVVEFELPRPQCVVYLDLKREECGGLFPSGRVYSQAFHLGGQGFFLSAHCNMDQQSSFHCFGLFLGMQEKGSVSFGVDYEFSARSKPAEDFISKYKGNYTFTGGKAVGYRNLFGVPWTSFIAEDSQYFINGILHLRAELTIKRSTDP

B2: POB1 (yeast two-hybrid fusions) (protein, UniProt Q9FPW6 1-561)
chain: T2 sequence
- binding [3]: binds

B4: AD-AtCUL3A (protein, UniProt Q9ZVH4 1-732)
chain: T1 sequence
- binding [3]: binds

Second part, the binder after the results:

- binding [1]: binds
- binding [2]: binds
B1: POB1 expressed in planta (HA-POB1 and GFP-POB1) (protein, UniProt Q9FPW6 1-561)
chain: T2 sequence

- binding [2]: binds
B3: POB1^D146A expressed in planta (HA-POB1^D146A and GFP-POB1^D146A) (protein, UniProt Q9FPW6 1-561)
chain: T2 sequence with D146A
